The results in this text go back to paper PMC6036185.

The chains behind the UniProt entries cited, without tags or fusion partners. Residues count along the entry.
UniProt Q7T9D9, residues 33-649: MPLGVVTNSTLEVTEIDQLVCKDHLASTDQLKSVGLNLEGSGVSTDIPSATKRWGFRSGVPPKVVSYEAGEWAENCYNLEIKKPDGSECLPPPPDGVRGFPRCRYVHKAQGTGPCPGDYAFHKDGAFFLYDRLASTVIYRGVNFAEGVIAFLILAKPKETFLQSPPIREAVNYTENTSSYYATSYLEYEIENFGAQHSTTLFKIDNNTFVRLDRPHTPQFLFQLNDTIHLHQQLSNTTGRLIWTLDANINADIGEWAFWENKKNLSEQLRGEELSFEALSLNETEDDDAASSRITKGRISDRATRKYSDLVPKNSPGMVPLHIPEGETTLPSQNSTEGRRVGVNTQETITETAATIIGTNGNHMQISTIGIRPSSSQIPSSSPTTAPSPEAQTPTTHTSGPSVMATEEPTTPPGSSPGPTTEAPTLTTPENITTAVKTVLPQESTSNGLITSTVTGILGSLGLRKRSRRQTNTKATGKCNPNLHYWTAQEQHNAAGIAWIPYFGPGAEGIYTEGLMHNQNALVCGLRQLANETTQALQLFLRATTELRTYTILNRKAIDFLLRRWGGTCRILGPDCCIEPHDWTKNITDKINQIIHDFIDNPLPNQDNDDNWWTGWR
UniProt Q99706, residues 22-242: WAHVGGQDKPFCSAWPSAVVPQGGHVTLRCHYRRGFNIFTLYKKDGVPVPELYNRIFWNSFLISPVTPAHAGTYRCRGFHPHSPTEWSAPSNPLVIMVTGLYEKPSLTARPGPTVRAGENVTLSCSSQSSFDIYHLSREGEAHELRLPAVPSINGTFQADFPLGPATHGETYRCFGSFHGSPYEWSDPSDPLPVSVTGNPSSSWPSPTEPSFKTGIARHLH
UniProt P26718, residues 73-216: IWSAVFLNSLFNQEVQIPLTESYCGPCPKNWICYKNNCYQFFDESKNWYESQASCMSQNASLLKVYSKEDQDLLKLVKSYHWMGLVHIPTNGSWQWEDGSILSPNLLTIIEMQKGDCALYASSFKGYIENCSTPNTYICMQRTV
UniProt O14931, residues 19-135: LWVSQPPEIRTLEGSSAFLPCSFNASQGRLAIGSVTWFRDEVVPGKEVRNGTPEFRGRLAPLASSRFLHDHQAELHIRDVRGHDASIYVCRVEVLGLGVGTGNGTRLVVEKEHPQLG
UniProt O95944, residues 22-192: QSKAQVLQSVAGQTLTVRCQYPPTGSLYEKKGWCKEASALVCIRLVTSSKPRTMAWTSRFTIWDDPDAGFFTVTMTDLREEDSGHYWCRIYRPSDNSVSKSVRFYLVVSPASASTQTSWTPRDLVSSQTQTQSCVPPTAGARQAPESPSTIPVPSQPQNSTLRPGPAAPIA
UniProt O76036, residues 22-258: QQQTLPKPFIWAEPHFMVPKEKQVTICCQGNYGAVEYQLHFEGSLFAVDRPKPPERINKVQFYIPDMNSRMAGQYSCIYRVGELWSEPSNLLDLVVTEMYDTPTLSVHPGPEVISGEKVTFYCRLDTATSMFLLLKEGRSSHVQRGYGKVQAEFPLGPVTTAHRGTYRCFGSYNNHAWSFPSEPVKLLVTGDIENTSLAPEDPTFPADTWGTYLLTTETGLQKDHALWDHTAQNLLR

Results are given in words; binding and its absence hold for the method and conditions named.

For the experiment, the target named is soluble recombinant Sudan virus (SUDV)-GP, Gulu strain, 1-649 ectodomain (Sudan virus (SUDV), strain Gulu) (UniProt Q7T9D9). The experiment is described as follows: ELISA; both purified. Background: In an ELISA, binding on a coated surface is turned into a signal by an enzyme label.
Turning to “KIR2DL4-Ig (from UniProt Q99706 22-242) (Fc fusion)”, the binding entry is on record as “no binding (tested: 2 µg/ml)”.

As to “NKG2D-Ig (from UniProt P26718 73-216) (Fc fusion)”, the binding entry was “no binding (tested: 2 µg/ml)”.

As for “NKp30-Ig (from UniProt O14931 19-135) (Fc fusion)”, the binding result is listed as “no binding (tested: 2 µg/ml)”.

Consider “NKp44-Ig (from UniProt O95944) (Fc fusion)”, for which the binding entry is given as “no binding (tested: 2 µg/ml)”.

On to “NKp46-Ig (from UniProt O76036) (Fc fusion)”, for which the binding entry is given as “no binding (tested: 2 µg/ml)”.
